# Some of the results follow.
# Key:
# Test in all cases: glycan array binding signal (z-score within array); higher = stronger binding
# Settings in all cases: glycan notation: IUPAC condensed, linker removed
# [1] = target: Fuc(a1-2)[GalNAc(a1-3)]Gal(b1-3)GlcNAc(b1-6)GalNAc
# In short: (§1)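 Glycan array data were curated from 3228 arrays in the Consortium for Functional Glycomics database and kept only where the protein sequence was available. Glycan names were converted to IUPAC-condensed notation, and columns mapping to the same glycan were averaged. The binding signal is a within-array Z-score, averaged across arrays of the same protein sequence at different concentrations or buffers and across linkers. Negative Z-scores can be read as non-binding.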
# [2] = target: Fuc(a1-2)[GalNAc(a1-3)]Gal(b1-4)Glc
# In short: as §1
# [3] = target: Fuc(a1-2)[GalNAc(a1-3)]Gal(b1-4)GlcNAc
# In short: as §1
# [4] = target: Fuc(a1-2)[GalNAc(a1-3)]Gal(b1-4)GlcNAc(b1-2)Man
# In short: as §1
# [5] = target: Fuc(a1-2)[GalNAc(a1-3)]Gal(b1-4)GlcNAc(b1-2)Man(a1-3)[Fuc(a1-2)[GalNAc(a1-3)]Gal(b1-4)GlcNAc(b1-2)Man(a1-6)]Man(b1-4)GlcNAc(b1-4)GlcNAc
# In short: as §1
# [6] = target: Fuc(a1-2)[GalNAc(a1-3)]Gal(b1-4)GlcNAc(b1-2)Man(a1-3)[Fuc(a1-2)[GalNAc(a1-3)]Gal(b1-4)GlcNAc(b1-2)Man(a1-6)]Man(b1-4)GlcNAc(b1-4)[Fuc(a1-6)]GlcNAc
# In short: as §1
# [7] = target: Fuc(a1-2)[GalNAc(a1-3)]Gal(b1-4)GlcNAc(b1-3)Gal(b1-4)GlcNAc
# In short: as §1
# [8] = target: Fuc(a1-2)[GalNAc(a1-3)]Gal(b1-4)GlcNAc(b1-3)Gal(b1-4)GlcNAc(b1-3)Gal(b1-4)GlcNAc
# In short: as §1
# [9] = target: Fuc(a1-2)[GalNAc(a1-3)]Gal(b1-4)GlcNAc(b1-3)GalNAc
# In short: as §1
# [10] = target: Fuc(a1-2)[GalNAc(a1-3)]Gal(b1-4)GlcNAc(b1-3)[Fuc(a1-2)[GalNAc(a1-3)]Gal(b1-4)GlcNAc(b1-6)]GalNAc
# In short: as §1
# [11] = target: Fuc(a1-2)[GalNAc(a1-3)]Gal(b1-4)GlcNAc(b1-6)GalNAc
# In short: as §1
# [12] = target: Fuc(a1-2)[GalNAc(a1-3)]Gal(b1-4)[Fuc(a1-3)]GlcNAc
# In short: as §1
# [13] = target: Fuc(a1-2)[GalNAc(a1-3)]Gal(b1-4)[Fuc(a1-3)]GlcNAc(b1-3)GalNAc
# In short: as §1
# [14] = target: Fuc(a1-2)[GalNAc(a1-4)]Gal(b1-4)GlcNAc
# In short: as §1
# [15] = target: Fuc(a1-2)[GalNAc(b1-3)]Gal
# In short: as §1
# Fuc(a1-3)GlcNAc = target: Fuc(a1-3)GlcNAc
# In short: as §1
# [16] = target: Fuc(a1-3)[Gal(b1-4)]Glc6S
# In short: as §1
# [17] = target: Fuc(a1-3)[Gal(b1-4)]GlcNAc
# In short: as §1
# [18] = target: Fuc(a1-3)[Gal(b1-4)]GlcNAc(b1-2)Man
# In short: as §1
# [19] = target: Fuc(a1-3)[Gal(b1-4)]GlcNAc(b1-2)Man(a1-3)[Fuc(a1-3)[Gal(b1-4)]GlcNAc(b1-2)Man(a1-6)]Man(b1-4)GlcNAc(b1-4)GlcNAc
# In short: as §1
# [20] = target: Fuc(a1-3)[Gal(b1-4)]GlcNAc(b1-2)Man(a1-3)[Fuc(a1-3)[Gal(b1-4)]GlcNAc(b1-2)Man(a1-6)]Man(b1-4)GlcNAc(b1-4)[Fuc(a1-6)]GlcNAc
# In short: as §1
# [21] = target: Fuc(a1-3)[Gal(b1-4)]GlcNAc(b1-3)Gal(b1-3)[Fuc(a1-4)]GlcNAc
# In short: as §1
# [22] = target: Fuc(a1-3)[Gal(b1-4)]GlcNAc(b1-3)Gal(b1-4)[Fuc(a1-3)]GlcNAc
# In short: as §1
# [23] = target: Fuc(a1-3)[Gal(b1-4)]GlcNAc(b1-3)Gal(b1-4)[Fuc(a1-3)]GlcNAc(b1-3)Gal(b1-4)[Fuc(a1-3)]GlcNAc
# In short: as §1
# [24] = target: Fuc(a1-3)[Gal(b1-4)]GlcNAc(b1-3)GalNAc
# In short: as §1
# [25] = target: Fuc(a1-3)[Gal(b1-4)]GlcNAc(b1-6)GalNAc
# In short: as §1
# [26] = target: Fuc(a1-3)[Gal(b1-4)]GlcNAc(b1-6)[Gal(b1-3)GlcNAc(b1-3)]Gal(b1-4)Glc
# In short: as §1
# [27] = target: Fuc(a1-3)[Gal(b1-4)]GlcNAc6S
# In short: as §1
# [28] = target: Fuc(a1-3)[Gal3S(b1-4)]Glc
# In short: as §1
# [29] = target: Fuc(a1-3)[Gal3S(b1-4)]GlcNAc
# In short: as §1
# [30] = target: Fuc(a1-3)[Gal3S(b1-4)]GlcNAc6S
# In short: as §1
# [31] = target: Fuc(a1-3)[GalNAc(b1-4)]GlcNAc
# In short: as §1
# [32] = target: Fuc(a1-3)[GalNAc(b1-4)]GlcNAc6S
# In short: as §1
# Fuc(a1-4)GlcNAc = target: Fuc(a1-4)GlcNAc
# In short: as §1
# Fuc(b1-3)GlcNAc = target: Fuc(b1-3)GlcNAc
# In short: as §1
# Gal(a1-2)Gal = target: Gal(a1-2)Gal
# In short: as §1
# Gal(a1-3)Gal = target: Gal(a1-3)Gal
# In short: as §1
binder,measurement,setting,value
EUL D1A first (Oryza sativa) (protein) MFGFGHHHNQAPAAPSDPNQIFKIFCRANENYCLTVRDSAVVLAPVNPKDEHQHWFKDMRFSTKVKDGEGMPAFALVNKATGLAVKHSLGQSHPVKLVPFNPEYEDASVLWTESKDVGKGFRCIRMVNNTRLNLDAFHGDKDHGGVRDGTTVVLWEWCKGDNQSWKILPWGPEAHSSSPGAATILEQKLISEEDLNSAVDHHHHHH,glycan array binding signal (z-score),[1],-0.602
same,glycan array binding signal (z-score),[2],0.261
same,glycan array binding signal (z-score),[3],0.165
same,glycan array binding signal (z-score),[4],-0.989
same,glycan array binding signal (z-score),[5],-0.649
same,glycan array binding signal (z-score),[6],0.095
same,glycan array binding signal (z-score),[7],-0.61
same,glycan array binding signal (z-score),[8],1.71
same,glycan array binding signal (z-score),[9],-1.21
same,glycan array binding signal (z-score),[10],-0.458
same,glycan array binding signal (z-score),[11],-0.756
same,glycan array binding signal (z-score),[12],-0.527
same,glycan array binding signal (z-score),[13],1.44
same,glycan array binding signal (z-score),[14],1.55
same,glycan array binding signal (z-score),[15],-0.397
same,glycan array binding signal (z-score),Fuc(a1-3)GlcNAc,0.839
same,glycan array binding signal (z-score),[16],-0.554
same,glycan array binding signal (z-score),[17],-0.776
same,glycan array binding signal (z-score),[18],3.34
same,glycan array binding signal (z-score),[19],0.332
same,glycan array binding signal (z-score),[20],0.82
same,glycan array binding signal (z-score),[21],-0.741
same,glycan array binding signal (z-score),[22],-1.08
same,glycan array binding signal (z-score),[23],0.528
same,glycan array binding signal (z-score),[24],0.468
same,glycan array binding signal (z-score),[25],1.97
same,glycan array binding signal (z-score),[26],-1.39
same,glycan array binding signal (z-score),[27],0.976
same,glycan array binding signal (z-score),[28],0.069
same,glycan array binding signal (z-score),[29],0.583
same,glycan array binding signal (z-score),[30],-0.544
same,glycan array binding signal (z-score),[31],1.05
same,glycan array binding signal (z-score),[32],-1.36
same,glycan array binding signal (z-score),Fuc(a1-4)GlcNAc,-0.654
same,glycan array binding signal (z-score),Fuc(b1-3)GlcNAc,-0.447
same,glycan array binding signal (z-score),Gal(a1-2)Gal,-0.848
same,glycan array binding signal (z-score),Gal(a1-3)Gal,-0.25

# Three successive entries already listed, quoted:
binder,measurement,setting,value
EUL D1A first (Oryza sativa) (protein) MFGFGHHHNQAPAAPSDPNQIFKIFCRANENYCLTVRDSAVVLAPVNPKDEHQHWFKDMRFSTKVKDGEGMPAFALVNKATGLAVKHSLGQSHPVKLVPFNPEYEDASVLWTESKDVGKGFRCIRMVNNTRLNLDAFHGDKDHGGVRDGTTVVLWEWCKGDNQSWKILPWGPEAHSSSPGAATILEQKLISEEDLNSAVDHHHHHH,glycan array binding signal (z-score),[2],0.261
same,glycan array binding signal (z-score),[3],0.165
same,glycan array binding signal (z-score),[4],-0.989
